From the supplement of paper PMC12067093, “Discovery and optimisation of a covalent ligand for TRIM25 and its application to targeted protein ubiquitination” (Chemical Science, 2025)
The other results are listed elsewhere or left out.

Protein sequences, listed by entry. Tags and fused reporters are not part of them. Lines headed by an entry give the natural chain unless they say otherwise; changes in a name come on top.
UniProt Q01581: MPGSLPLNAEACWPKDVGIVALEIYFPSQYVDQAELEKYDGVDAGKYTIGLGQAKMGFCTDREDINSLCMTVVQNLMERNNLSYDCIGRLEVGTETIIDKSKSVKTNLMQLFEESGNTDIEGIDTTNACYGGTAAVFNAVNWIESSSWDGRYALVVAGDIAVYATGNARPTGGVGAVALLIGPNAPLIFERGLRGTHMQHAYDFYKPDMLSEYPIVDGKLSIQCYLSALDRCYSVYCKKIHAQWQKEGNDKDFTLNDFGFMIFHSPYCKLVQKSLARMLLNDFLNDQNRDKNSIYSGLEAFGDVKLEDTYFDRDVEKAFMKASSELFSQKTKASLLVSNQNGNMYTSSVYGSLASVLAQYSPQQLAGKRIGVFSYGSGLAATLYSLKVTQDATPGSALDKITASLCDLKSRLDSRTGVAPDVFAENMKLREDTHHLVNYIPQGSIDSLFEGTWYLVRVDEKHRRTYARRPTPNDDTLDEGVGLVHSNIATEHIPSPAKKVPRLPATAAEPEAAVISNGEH
UniProt P51610: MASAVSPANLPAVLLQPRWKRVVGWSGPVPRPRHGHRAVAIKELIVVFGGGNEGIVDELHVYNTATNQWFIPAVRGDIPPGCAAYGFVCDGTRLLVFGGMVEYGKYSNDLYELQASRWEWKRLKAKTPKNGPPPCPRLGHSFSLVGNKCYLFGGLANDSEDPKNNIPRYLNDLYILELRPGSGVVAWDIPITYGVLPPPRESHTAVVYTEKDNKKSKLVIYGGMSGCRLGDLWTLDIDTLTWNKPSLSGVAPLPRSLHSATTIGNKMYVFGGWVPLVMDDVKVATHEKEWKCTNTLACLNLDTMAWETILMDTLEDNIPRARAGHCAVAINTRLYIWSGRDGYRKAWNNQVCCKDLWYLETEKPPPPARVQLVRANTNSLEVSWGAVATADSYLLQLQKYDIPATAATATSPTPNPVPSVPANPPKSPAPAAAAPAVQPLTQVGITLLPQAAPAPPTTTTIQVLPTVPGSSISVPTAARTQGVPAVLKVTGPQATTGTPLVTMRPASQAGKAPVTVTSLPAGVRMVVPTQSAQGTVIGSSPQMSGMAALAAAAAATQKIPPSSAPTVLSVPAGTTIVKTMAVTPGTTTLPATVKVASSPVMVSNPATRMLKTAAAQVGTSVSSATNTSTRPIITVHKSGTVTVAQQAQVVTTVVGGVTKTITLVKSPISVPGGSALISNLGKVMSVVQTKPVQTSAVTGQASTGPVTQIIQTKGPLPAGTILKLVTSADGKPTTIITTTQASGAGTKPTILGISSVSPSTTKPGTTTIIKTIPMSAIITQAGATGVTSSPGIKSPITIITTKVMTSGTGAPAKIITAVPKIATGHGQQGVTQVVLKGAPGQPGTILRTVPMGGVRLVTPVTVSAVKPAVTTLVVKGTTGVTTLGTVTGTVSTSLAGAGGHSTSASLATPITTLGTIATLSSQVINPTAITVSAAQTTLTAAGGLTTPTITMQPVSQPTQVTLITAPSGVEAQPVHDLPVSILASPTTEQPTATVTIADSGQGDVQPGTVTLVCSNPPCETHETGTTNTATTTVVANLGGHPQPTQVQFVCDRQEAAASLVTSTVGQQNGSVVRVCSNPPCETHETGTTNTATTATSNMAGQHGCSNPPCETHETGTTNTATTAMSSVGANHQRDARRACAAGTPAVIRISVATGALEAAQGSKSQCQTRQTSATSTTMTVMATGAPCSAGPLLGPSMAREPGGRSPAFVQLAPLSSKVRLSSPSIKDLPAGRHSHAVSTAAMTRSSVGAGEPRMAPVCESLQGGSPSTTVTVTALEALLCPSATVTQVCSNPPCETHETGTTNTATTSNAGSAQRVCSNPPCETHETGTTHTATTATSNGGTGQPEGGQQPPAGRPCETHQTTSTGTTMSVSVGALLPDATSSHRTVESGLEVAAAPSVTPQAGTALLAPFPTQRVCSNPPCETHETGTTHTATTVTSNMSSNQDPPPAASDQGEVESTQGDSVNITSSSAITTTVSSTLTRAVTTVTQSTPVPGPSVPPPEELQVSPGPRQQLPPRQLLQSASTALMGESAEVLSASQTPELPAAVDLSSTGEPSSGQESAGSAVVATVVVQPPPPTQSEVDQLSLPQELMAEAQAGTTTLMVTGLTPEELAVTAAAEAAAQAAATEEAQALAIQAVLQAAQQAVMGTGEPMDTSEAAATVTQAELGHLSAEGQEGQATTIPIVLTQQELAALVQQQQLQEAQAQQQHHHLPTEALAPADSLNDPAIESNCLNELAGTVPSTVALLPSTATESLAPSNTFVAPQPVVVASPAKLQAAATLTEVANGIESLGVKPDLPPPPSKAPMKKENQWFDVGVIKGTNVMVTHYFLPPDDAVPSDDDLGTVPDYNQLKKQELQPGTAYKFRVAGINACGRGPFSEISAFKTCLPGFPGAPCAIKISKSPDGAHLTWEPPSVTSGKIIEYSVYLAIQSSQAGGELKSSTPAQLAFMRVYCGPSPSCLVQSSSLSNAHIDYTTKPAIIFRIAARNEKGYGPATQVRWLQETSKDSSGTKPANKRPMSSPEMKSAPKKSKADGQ
UniProt Q9Y4D8: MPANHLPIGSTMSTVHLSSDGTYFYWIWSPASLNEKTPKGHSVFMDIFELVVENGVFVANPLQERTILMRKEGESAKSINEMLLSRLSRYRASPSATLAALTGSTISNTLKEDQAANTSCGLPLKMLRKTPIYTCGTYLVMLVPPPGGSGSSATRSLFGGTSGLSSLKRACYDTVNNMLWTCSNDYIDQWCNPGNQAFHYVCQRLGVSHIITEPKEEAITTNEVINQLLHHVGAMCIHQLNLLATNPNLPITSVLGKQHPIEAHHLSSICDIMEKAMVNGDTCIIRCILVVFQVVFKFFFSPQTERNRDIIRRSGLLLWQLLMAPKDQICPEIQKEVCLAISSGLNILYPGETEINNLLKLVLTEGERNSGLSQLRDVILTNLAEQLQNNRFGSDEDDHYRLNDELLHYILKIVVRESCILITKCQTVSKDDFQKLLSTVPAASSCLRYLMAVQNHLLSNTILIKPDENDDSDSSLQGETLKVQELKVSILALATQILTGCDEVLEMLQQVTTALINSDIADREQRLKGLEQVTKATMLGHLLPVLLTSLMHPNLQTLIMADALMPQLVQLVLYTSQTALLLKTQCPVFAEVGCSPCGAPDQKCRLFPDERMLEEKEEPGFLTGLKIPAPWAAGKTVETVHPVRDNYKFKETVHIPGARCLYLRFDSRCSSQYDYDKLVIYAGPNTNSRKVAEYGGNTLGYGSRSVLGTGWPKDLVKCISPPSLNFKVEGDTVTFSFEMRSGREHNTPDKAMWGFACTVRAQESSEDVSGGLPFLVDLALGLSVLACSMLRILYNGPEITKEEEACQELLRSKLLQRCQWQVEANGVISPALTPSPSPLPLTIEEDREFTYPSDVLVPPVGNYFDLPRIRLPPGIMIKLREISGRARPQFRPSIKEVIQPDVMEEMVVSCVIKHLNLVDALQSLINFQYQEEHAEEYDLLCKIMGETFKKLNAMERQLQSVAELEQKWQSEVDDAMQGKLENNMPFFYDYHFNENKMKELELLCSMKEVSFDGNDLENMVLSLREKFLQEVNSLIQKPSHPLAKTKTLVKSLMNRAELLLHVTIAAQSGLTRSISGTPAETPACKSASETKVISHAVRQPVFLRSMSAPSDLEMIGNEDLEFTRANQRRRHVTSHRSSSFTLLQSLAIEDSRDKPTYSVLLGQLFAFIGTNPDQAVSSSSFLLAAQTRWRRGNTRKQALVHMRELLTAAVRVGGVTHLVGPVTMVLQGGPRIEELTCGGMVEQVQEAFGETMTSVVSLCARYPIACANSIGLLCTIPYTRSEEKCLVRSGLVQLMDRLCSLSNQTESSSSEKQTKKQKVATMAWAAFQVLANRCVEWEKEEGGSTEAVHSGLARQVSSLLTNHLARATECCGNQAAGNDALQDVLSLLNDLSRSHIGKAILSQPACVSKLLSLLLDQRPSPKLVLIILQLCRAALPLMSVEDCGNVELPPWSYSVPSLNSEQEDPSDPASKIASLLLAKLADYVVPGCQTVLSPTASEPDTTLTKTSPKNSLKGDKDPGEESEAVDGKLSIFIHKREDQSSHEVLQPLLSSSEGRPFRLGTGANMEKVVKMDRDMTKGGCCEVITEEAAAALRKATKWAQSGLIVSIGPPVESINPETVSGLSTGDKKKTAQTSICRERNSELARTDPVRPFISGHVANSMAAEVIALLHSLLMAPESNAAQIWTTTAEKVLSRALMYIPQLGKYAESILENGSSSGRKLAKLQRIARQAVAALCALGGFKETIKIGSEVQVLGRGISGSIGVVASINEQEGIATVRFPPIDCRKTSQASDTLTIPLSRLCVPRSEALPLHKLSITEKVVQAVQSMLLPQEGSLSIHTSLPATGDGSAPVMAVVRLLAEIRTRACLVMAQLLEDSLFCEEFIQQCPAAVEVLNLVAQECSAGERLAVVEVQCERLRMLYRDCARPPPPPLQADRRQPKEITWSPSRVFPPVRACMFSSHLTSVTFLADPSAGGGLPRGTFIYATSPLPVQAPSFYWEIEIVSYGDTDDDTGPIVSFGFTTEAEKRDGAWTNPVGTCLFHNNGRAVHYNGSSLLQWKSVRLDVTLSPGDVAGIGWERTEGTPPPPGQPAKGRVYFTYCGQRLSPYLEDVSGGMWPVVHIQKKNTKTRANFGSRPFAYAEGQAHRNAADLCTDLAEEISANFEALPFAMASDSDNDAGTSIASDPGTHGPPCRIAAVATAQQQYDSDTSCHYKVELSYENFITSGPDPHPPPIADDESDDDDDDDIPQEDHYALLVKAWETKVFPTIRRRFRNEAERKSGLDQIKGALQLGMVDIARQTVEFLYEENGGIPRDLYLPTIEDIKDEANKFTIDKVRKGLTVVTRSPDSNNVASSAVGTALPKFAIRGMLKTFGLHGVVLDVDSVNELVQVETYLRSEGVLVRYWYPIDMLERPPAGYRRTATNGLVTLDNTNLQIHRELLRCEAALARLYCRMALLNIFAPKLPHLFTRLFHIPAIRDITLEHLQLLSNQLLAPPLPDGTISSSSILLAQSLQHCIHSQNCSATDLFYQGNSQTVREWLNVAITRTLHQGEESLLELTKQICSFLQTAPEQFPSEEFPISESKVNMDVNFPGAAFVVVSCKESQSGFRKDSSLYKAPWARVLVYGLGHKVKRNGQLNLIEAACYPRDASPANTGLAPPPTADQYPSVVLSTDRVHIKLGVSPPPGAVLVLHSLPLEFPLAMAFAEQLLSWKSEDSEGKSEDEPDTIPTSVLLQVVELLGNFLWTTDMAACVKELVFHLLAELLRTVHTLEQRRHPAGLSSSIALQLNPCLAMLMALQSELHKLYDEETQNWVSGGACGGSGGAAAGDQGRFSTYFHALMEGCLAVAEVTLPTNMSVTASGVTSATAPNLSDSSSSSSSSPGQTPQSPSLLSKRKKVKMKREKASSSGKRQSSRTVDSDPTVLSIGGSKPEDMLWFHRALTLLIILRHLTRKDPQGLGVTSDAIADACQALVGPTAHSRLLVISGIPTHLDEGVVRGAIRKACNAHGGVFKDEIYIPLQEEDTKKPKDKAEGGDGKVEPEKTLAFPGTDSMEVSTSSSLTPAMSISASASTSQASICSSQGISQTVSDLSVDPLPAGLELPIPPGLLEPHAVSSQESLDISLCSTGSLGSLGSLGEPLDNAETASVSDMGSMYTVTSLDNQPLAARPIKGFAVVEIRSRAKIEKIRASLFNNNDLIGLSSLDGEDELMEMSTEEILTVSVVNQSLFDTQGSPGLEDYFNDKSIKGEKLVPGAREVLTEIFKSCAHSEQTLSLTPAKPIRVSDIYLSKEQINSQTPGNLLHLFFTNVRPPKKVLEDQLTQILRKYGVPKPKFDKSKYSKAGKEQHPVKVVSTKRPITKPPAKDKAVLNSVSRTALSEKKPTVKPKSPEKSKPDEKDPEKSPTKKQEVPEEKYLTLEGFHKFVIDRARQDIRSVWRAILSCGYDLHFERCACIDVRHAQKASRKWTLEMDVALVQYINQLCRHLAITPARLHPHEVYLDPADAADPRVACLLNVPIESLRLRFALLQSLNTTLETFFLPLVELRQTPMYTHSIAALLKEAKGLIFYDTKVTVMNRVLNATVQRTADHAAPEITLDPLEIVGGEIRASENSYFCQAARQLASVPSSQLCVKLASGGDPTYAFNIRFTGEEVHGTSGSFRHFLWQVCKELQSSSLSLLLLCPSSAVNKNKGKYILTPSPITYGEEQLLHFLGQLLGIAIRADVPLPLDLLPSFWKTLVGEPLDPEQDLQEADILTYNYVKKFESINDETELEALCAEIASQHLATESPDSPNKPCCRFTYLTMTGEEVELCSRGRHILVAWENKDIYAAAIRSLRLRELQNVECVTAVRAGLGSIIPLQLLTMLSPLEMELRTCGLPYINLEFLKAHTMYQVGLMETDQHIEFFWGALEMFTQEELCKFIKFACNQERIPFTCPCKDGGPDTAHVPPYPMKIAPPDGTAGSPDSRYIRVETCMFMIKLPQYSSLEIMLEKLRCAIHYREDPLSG

Compound: Cc1cc(ccc1-c1ccccc1)C(=O)N1CCCN(CC1)C(=O)CCl [compound 10]
Experiment: probe-labelled cysteine peptide fold change vs DMSO (competition) (log2 fold change); higher = less target engagement (more negative = stronger competition)
Settings: THP-1, incubation time: 4 h
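Also: competitive profiling in live THP-1 cells: cysteine peptides tagged with an iodoacetamide desthiobiotin (IA-DTB) probe, intensity after compound treatment relative to DMSO-treated cells.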

Target | probe-labelled cysteine peptide fold change (10 µM) | probe-labelled cysteine peptide fold change (50 µM)
HMGCS1_Q01581_406_ITASLCDLK (UniProt Q01581) | -0.096 | -0.145
HERC1_Q15751_3002_RNHPGCGR (UniProt Q15751) | 0.121 | 0.209
HECTD1_Q9ULT8_1955_DFCEHGTK (UniProt Q9ULT8) | 0.0397 | -0.0184
HDAC10_Q969S8_663_MLQCHPHLVA (UniProt Q969S8) | -0.0368 | -0.2
HELZ_P42694_80_NYVQADEDCR (UniProt P42694) | 0.0451 | 0.15
HCFC2_Q9Y5Z7_659_VAAINGCGIGPFSK (UniProt Q9Y5Z7) | -0.1 | -0.0904
HERC4_Q5GLZ8_175_YGQLGLGTDCK (UniProt Q5GLZ8) | -0.052 | -0.122
HCFC1_P51610_353_AWNNQVCCK (UniProt P51610) | -0.0641 | -0.0904
HDHD3_Q9BSH5_243_EHILPSLAHLLPALDCLEGSTPGL (UniProt Q9BSH5) | -0.209 | 0.176
HEATR5B_Q9P2D3_518_TSPEAVSGYSFAMAALLGGVHQCPLGIPHAK (UniProt Q9P2D3) | 0.106 | -0.115
HLA-A_P01891_363_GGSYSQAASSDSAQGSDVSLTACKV (UniProt P01891) | -0.356 | -0.619
HK2_P52789_628_ASGCEGEDVVTLLK (UniProt P52789) | -0.105 | 0.156
HDAC6_Q9UBN7_417_ALAEGVSASLHTLLGDPCPMLESPGAPCR (UniProt Q9UBN7) | 0.0166 | -0.0111
HGH1_Q9BTY7_51_HVLALTGCGPGR (UniProt Q9BTY7) | -0.0673 | -0.0365
HK1_P19367_256_MCINTEWGAFGDDGSLEDIRTEFDREIDR (UniProt P19367) | 0.329 | 0.529
HK1_P19367_813_AILQQLGLNSTCDDSILVK (UniProt P19367) | 0.0936 | 0.00861
HELB_Q8NG08_350_SCVFPYDLYHAER (UniProt Q8NG08) | -0.0198 | -0.0529
HDAC8_Q9BY41_352_TLSSEIPDHEFFTAYGPDYVLEITPSCRPDR (UniProt Q9BY41) | 0.0267 | -0.385
HLA-DRB5_Q30154_146_TQTLQHHNLLVCSVNGFYPGSIEVR (UniProt Q30154) | 0.00511 | 0.0856
HDAC1_Q13547_12_KVCYYYDGDVGNYYYGQGHPMKPHR (UniProt Q13547) | -0.223 | -0.882
HEATR5B_Q9P2D3_471_CVAVALPFQLTPFLDR (UniProt Q9P2D3) | -0.074 | 0.189

Target | probe-labelled cysteine peptide fold change (10 µM) | probe-labelled cysteine peptide fold change (50 µM)
HK2_P52789_813_AILQHLGLESTCDDSIIVK (UniProt P52789) | 0.17 | 0.242
HDAC10_Q969S8_102_EELQALSGQFDAIYFHPSTFHCAR (UniProt Q969S8) | 0.255 | -0.0511
HEATR3_Q7Z4Q2_20_RPQFSPTGDCQAEAAAAANGTGGEEDDGPAAELLEK (UniProt Q7Z4Q2) | 0.0227 | -0.0305
HEATR1_Q9H583_1942_LLTFYNLADCIAEK (UniProt Q9H583) | -0.246 | 0.34
HECTD4_Q9Y4D8-5_275_LLLLEGGPGSPSCLLGGK (UniProt Q9Y4D8) | -0.0542 | 0.193
HDAC3_O15379_59_MIVFKPYQASQHDMCR (UniProt O15379) | -0.533 | 0.0537
HMGCS1_Q01581_86_NNLSYDCIGR (UniProt Q01581) | -0.204 | -0.183
HDDC2_Q7Z4H3_145_QLDQCEMILQASEYEDLEHKPGR (UniProt Q7Z4H3) | -0.0727 | 0.0582
HGS_O14964_212_VCEPCYEQLNR (UniProt O14964) | 0.0236 | -0.13
HECTD4_Q9Y4D8_3836_ELQNVECVTAVR (UniProt Q9Y4D8) | 0.0622 | -0.122
HK2_P52789_158_KLPLGFTFSFPCHQTK (UniProt P52789) | 0.056 | -0.0579
HCFC1_P51610_1139_RACAAGTPAVIR (UniProt P51610) | -0.127 | -0.502
HIBADH_P31937_75_HGYPLIIYDVFPDACK (UniProt P31937) | -0.159 | -0.0721
HERC1_Q15751_3849_QQGVLGLNMAPCMR (UniProt Q15751) | -0.0203 | -0.0603
HLTF_Q14527_896_VESIQCFQNTEAGSPTIMLLSLK (UniProt Q14527) | -0.0932 | 0.112
HDAC1_Q13547_12_VCYYYDGDVGNYYYGQGHPMK (UniProt Q13547) | 0.102 | 0.22
HK1_P19367_256_MCINTEWGAFGDDGSLEDIRTEFDR (UniProt P19367) | 0.303 | 0.365
HLA-C_P04222_345+364_GGSCSQAASSNSAQGSDESLIACKA (UniProt P04222) | -0.638 | -1.66
HEATR1_Q9H583_2048_HLIPCIAQFSVAMADDSLWK (UniProt Q9H583) | 0.279 | 0.303
HK3_P52790_634_ASDCEGQDVVSLLR (UniProt P52790) | 0.136 | 0.116
